## Primary screen of a compound library

Data taken from ChEMBL document CHEMBL3988442, “University of Dundee, Small-Polar-MMV Screening Library” (2021).

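Viability assay of Plasmodium falciparum sporozoites; the read-out is not stated. The concentration is filed as 10 mM, unlikely as a test dose, so the dose is not known. Higher reads as lower viability (inferred: compounds with an IC50 in retests scored well above the rest). Strong results were mostly tested again. About 34,000 compounds were tested under these conditions; 0.84% (about 280) showed 50% or more at least once.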

The filed quantity is “Percent Effect” (%). The controls that fix the scale are not given in the record; negative values are as filed. The compounds are a random part of those screened. Two or more numbers in one place are separate tests of the same structure; such repeats can differ widely.

structure | effect
Cc1cccc2[nH]c(C3CCN(C(=O)c4c[nH]c(=O)[nH]c4=O)CC3)nc12 | -1.316
Cn1cnc2cc(NC(=O)c3n[nH]c4c3CCC4)ccc21 | -48.98 and -33.08
COc1ncccc1NC(=O)N(CC(C)C)C1CC1 | -4.944
O=C(O)C(F)(F)F.[H][C@@]12CCN(c3ncccn3)[C@@]1([H])CCN2S(=O)(=O)c1cccs1 | 18.82
CC(C)Cc1ccc(S(=O)(=O)Nc2ccc(=O)n(C)c2)cc1 | 11.27
O=C(CN1CCCCCCC1=O)NCc1ccccn1 | -8.326
CCCc1cc(NC(=O)c2cc(N3CCNC3=O)c(F)cc2F)n[nH]1 | -27.19
Cn1cc(C2CCCN2CCC(=O)N2CCc3sccc3C2)cn1 (stereo not given) | -4.185
COCCn1c2c(ccc1=O)CCN(C(=O)NC1CC1)CC2 | 9.846
COc1ccc(C(CO)NC(=O)Nc2cccc(C#N)c2)cc1 (stereo not given) | 6.223 and 12.91 and -11.88
[H][C@@]12CCN(C(=O)C3CCOCC3)C[C@@]1([H])O[C@@H](c1nc(C)no1)C2 | -7.314
CC(C)(C)c1nnc(NCC(=O)N2CCc3sccc3C2)s1 | 9.55
O=C(O)C(F)(F)F.O=C1N(CC2CC2)CCC12CCCN(c1ncc(F)cn1)C2 (stereo not given) | 2.426
CN(C)C(=O)CN1CCC2(CC1)COc1ccccc1S(=O)(=O)N(C)C2.O=C(O)C(F)(F)F | 3.246
CCC(NC(=O)NCc1ccoc1C)c1c(C)nn(C)c1C (stereo not given) | -4.94
Nc1ccncc1-n1cc(CCO)cn1 | -17.2
COCCCNC(=O)c1cc(-c2cnc(N(C)C)nc2)cn1CC1CC1.O=C(O)C(F)(F)F | 10.47
CN1CCN(C(=O)CCn2nnc3ccccc32)CC(C(N)=O)C1 (stereo not given) | -2.09
Cc1nn(C)c(Cl)c1C1CCCN1C(=O)c1nccnc1N (stereo not given) | 4.8
CC(=O)NCCNC(=O)c1ccc(C)c(-n2cccc2)c1 | 5.64
COCCC(=O)N1CCC(c2nnc(-c3ccsc3)o2)CC1 | 16.62
CCOC(=O)CNC(=O)NCc1cccn1Cc1ccccc1 | -6.812
CNC(=O)C(C)S(=O)(=O)Cc1csc(-c2cccs2)n1 (stereo not given) | -30.5 and -18.5
NC(=O)N1CCC2(CCN(C(=O)c3cccnc3)CC2)C1.O=C(O)C(F)(F)F | 11.1
Cc1cc(-c2cnc(C)nc2CN(C)C(=O)c2ccccn2)on1 | 0.8414
COC(=O)c1ccc2ccn(CC3COCCO3)c(=O)c2c1 (stereo not given) | -4.474
O=C(O)C(F)(F)F.[H][C@@]12CN(C)C[C@]1(C(=O)NCC1CC1)CCCN2c1ncccn1 | 14.51
CC(C)c1noc(CN2CCN(C(=O)c3ccccc3F)CC2)n1 | -9.106
[H][C@@]12CCN(C(=O)c3cnoc3C)C[C@@]1([H])O[C@@H](c1ccncn1)C2 | -11.68
Cc1cc(C)c2cc(CNCCCN3CCOCC3)c(=O)[nH]c2c1 | 18.06
Cn1cc(N2CCC3(CCCN(Cc4ccc(F)cc4)C3)C2=O)cn1.O=C(O)C(F)(F)F (stereo not given) | -3.448
CC(C)C(=O)N1CCC([C@@H]2C[C@H](C(F)F)n3ncnc3N2)CC1 | 3.432
c1ccc(CCCN2CCN(c3ccc4nncn4n3)CC2)cc1 | -0.9887
O=C(O)C(F)(F)F.[H][C@@]12CCN(c3ccc(C)nn3)[C@@]1([H])CCN2C(=O)Cc1ccccc1 | 8.056
Cn1c(NCC(O)c2ccc(F)cc2)c(C#N)c(=O)n(C)c1=O (stereo not given) | 2.202
Cc1cc(=O)[nH]c(SCC(=O)N(C)CC2Cc3ccccc3CN2C)n1 (stereo not given) | -1.845
Clc1ccc(CN2CCCCC2Cn2cncn2)c2ncccc12 (stereo not given) | 4.2
O=C(NCc1ccoc1)Nc1ccc(CN2CCOC2=O)cc1 | 3.359
Cc1ccc(-c2cc(N)c(=O)n(C(C)C(N)=O)n2)o1 (stereo not given) | 10.84
Cc1cc(NC(=O)CN2CCCC2c2noc(C3CC3)n2)no1 (stereo not given) | 4.132
O=C(O)C(F)(F)F.O=C(O)C(F)(F)F.[H][C@@]12CCN(c3ccc(C)nn3)[C@@]1([H])CCN2Cc1ccsc1 | 5.604
CCc1nc(CN(C)C2CCN(CCn3cccn3)C2)no1 (stereo not given) | 10.47
Cc1c[nH]c(C2CCCN(Cc3cccc(C(=O)O)c3)C2)n1 (stereo not given) | 9.106
Cc1nc(CN2CCCC(N(C)CCc3cccs3)C2)no1 (stereo not given) | -17.47
O=C(CN1CC(n2cccn2)C1)NCCCc1ccccc1 | -11.11
O=C(NCCNc1ncccn1)C1CCN(C(=O)NC2CC2)CC1 | -10.96

For reference, 4 entries once more:

| structure | effect |
|---|---|
| `Cc1cc(NC(=O)CN2CCCC2c2noc(C3CC3)n2)no1` (stereo not given) | 4.132 |
| `Cn1cc(C2CCCN2CCC(=O)N2CCc3sccc3C2)cn1` (stereo not given) | -4.185 |
| `Cc1cc(C)c2cc(CNCCCN3CCOCC3)c(=O)[nH]c2c1` | 18.06 |
| `Cc1ccc(-c2cc(N)c(=O)n(C(C)C(N)=O)n2)o1` (stereo not given) | 10.84 |